The values that follow come from article PMC7527724.

The assay has as its target T1, Sorting nexin 2 (SNX2) (human (endogenous in HEp-2)) (UniProt O60749).
T1 sequence: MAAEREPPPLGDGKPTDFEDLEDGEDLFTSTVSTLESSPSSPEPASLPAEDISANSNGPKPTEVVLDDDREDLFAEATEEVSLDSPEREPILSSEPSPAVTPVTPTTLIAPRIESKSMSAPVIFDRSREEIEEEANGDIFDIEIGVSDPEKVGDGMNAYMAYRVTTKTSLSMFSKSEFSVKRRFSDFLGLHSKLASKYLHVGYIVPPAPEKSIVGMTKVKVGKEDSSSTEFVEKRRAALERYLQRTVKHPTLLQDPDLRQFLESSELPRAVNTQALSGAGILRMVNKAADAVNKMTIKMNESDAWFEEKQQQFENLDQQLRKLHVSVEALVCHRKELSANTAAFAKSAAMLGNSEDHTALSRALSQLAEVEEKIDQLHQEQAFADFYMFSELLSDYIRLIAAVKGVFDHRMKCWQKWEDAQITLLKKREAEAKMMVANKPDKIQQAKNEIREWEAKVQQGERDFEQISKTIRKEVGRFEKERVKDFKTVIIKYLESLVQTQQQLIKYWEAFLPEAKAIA
The assay can be described thus: proximity ligation; HEp-2 cells infected with HRSV at MOI 1, fixed at 24 hpi with 4% PFA, permeabilised with 0.01% saponin; Duolink in situ PLA with pairs of primary antibodies from different species; confocal microscopy.

These are yes or no findings as the source states them, for the method shown. In cells and extracts the contact can be indirect. Binding calls can cover weak binding; strength is not graded here.

As to “Human respiratory syncytial virus matrix protein (M)”, the binding result was “binds”.
